Laboratory results as given in PubChem BioAssay AID248 (DTP/NCI, 2004).
The list shows only some results of the screen, not a fair sample: it is rich in T/C values a quarter to a half above the control, in often repeated tests (any T/C) and in doses without a T/C. Other doses and runs of a compound stand elsewhere. T/C is the treated group as % of the vehicle group. Some entries give survivors of the animals treated and no T/C: the source holds a T/C of zero for them, seemingly a mark for toxic or unscored doses. Some doses without a T/C left all or most animals alive at the check, yet need not have been tolerated: the source hardly ever lists a survival T/C far under the control, and the zero likely stands for such cases as well. Counts of survivors are from the toxicity check (mostly the fifth day) where no day follows; animals may have died later. Schedules are NCI's codes, read here as Q, the interval in days (D) or hours (H), X, the number of doses. Some schedule codes hold Z or #, which are not explained here. Where survival is the endpoint, the PubChem record calls one and a half times the control and up active, and a quarter to a half above the control has no call in these data; cut-offs in other NCI protocols can differ. Some entries hold several experiments; the results are listed from low to high.

System: L1210 leukemia ip in BDF1 mice, survival T/C
Assay: NCI In Vivo Anticancer Drug Screen. Data for tumor model L1210 Leukemia (intraperitoneal) in B6D2F1 (BDF1) mice
Settings: T/C endpoint: mean survival time, higher T/C = longer survival
[1] = dose: 100.0 mg/kg/injection, schedule: Q04DX003 (ip), vehicle: saline
[2] = dose: 400.0 mg/kg/injection, schedule: Q04DX003 (ip), vehicle: saline
[3] = dose: 400.0 mg/kg/injection, schedule: Q04DX003 (ip), vehicle: saline with Tween-80
[4] = dose: 200.0 mg/kg/injection, schedule: Q01DX001 (ip), vehicle: saline
[5] = dose: 400.0 mg/kg/injection, schedule: Q01DX001 (ip), vehicle: saline
[6] = dose: 200.0 mg/kg/injection, schedule: Q04DX003 (ip), vehicle: saline

## O=C(N/N=C\c1ccccc1Cl)c1ccco1
dose: 400.0 mg/kg/injection, schedule: Q01DX001 (ip), vehicle: carboxymethylcellulose (CMC)
  survivor count: 0 of 4

## O=C(CCCN1CCC2(CC1)C(=O)NCN2c1ccccc1)c1ccc(F)cc1
dose: 25.0 mg/kg/injection, schedule: Q04DX003 (ip), vehicle: saline
  T/C: 125 % of control
[1]
  survivor count: 4 of 4
[2]
  survivor count: 3 of 4

## N#Cc1ccc(OCc2nc(N)nc(N)c2-c2ccc(Cl)cc2)cc1
[3]
  survivor count: 3 of 6

## NC1=NN(c2ccccc2)CC1
dose: 100.0 mg/kg/injection, schedule: Q04DX003 (ip), vehicle: saline with Tween-80
  survivor count: 0 of 6
dose: 200.0 mg/kg/injection, schedule: Q04DX003 (ip), vehicle: saline with Tween-80
  survivor count: 0 of 6
[3]
  survivor count: 0 of 6

## CC(=Nc1cccnc1)c1ccccc1
dose: 60.0 mg/kg/injection, schedule: Q01DX001 (ip), vehicle: carboxymethylcellulose (CMC)
  survivor count: 3 of 6
dose: 75.0 mg/kg/injection, schedule: Q01DX001 (ip), vehicle: carboxymethylcellulose (CMC)
  survivor count: 1 of 6
dose: 150.0 mg/kg/injection, schedule: Q01DX001 (ip), vehicle: carboxymethylcellulose (CMC)
  survivor count: 0 of 6
dose: 300.0 mg/kg/injection, schedule: Q01DX001 (ip), vehicle: carboxymethylcellulose (CMC)
  survivor count: 0 of 6

## CC(=O)[O][Sn]([CH3])([CH3])[CH3]
dose: 1.5 mg/kg/injection, schedule: Q01DX009 (ip), vehicle: Klucel (hydroxypropylcellulose) (HPC)
  survivor count: 0 of 6
dose: 3.0 mg/kg/injection, schedule: Q01DX009 (ip), vehicle: Klucel (hydroxypropylcellulose) (HPC)
  survivor count: 6 of 6
dose: 6.0 mg/kg/injection, schedule: Q01DX009 (ip), vehicle: Klucel (hydroxypropylcellulose) (HPC)
  survivor count: 0 of 6
dose: 12.5 mg/kg/injection, schedule: Q01DX009 (ip), vehicle: Klucel (hydroxypropylcellulose) (HPC)
  survivor count: 0 of 6
dose: 25.0 mg/kg/injection, schedule: Q01DX009 (ip), vehicle: Klucel (hydroxypropylcellulose) (HPC)
  survivor count: 0 of 6
dose: 50.0 mg/kg/injection, schedule: Q01DX009 (ip), vehicle: Klucel (hydroxypropylcellulose) (HPC)
  survivor count: 0 of 6
dose: 75.0 mg/kg/injection, schedule: Q01DX009 (ip), vehicle: Klucel (hydroxypropylcellulose) (HPC)
  survivor count: 0 of 6
dose: 150.0 mg/kg/injection, schedule: Q01DX009 (ip), vehicle: Klucel (hydroxypropylcellulose) (HPC)
  survivor count: 0 of 6
dose: 300.0 mg/kg/injection, schedule: Q01DX009 (ip), vehicle: Klucel (hydroxypropylcellulose) (HPC)
  survivor count: 0 of 6

## Nc1ccc(O)c2ncccc12
dose: 25.0 mg/kg/injection, schedule: Q01DX009 (ip), vehicle: saline
  survivor count: 2 of 6
dose: 50.0 mg/kg/injection, schedule: Q01DX009 (ip), vehicle: saline
  survivor count: 0 of 6
dose: 100.0 mg/kg/injection, schedule: Q01DX001 (ip), vehicle: saline
  survivor count: 0 of 4
[4]
  survivor count: 0 of 4
[5]
  survivor count: 0 of 4

## CCCc1nc2c(nc1C)C(=O)C=CC2=O
dose: 19.0 mg/kg/injection, schedule: Q01DX001 (ip), vehicle: other
  survivor count: 5 of 6
dose: 38.0 mg/kg/injection, schedule: Q01DX001 (ip), vehicle: other
  survivor count: 0 of 6
dose: 75.0 mg/kg/injection, schedule: Q01DX001 (ip), vehicle: other
  survivor count: 0 of 6
dose: 150.0 mg/kg/injection, schedule: Q01DX001 (ip), vehicle: other
  survivor count: 0 of 6
dose: 300.0 mg/kg/injection, schedule: Q01DX001 (ip), vehicle: other
  survivor count: 0 of 6

## COc1ccc(-c2c(COC(C)=O)c(COC(C)=O)c3n2CCC3)cc1
dose: 100.0 mg/kg/injection, schedule: Q01DX009 (ip), vehicle: Klucel (hydroxypropylcellulose) (HPC)
  survivor count: 3 of 3
dose: 200.0 mg/kg/injection, schedule: Q01DX009 (ip), vehicle: Klucel (hydroxypropylcellulose) (HPC)
  T/C: 130 % of control

## COC(=O)c1[nH]cnc1/N=N/N(C)C
dose: 13.0 mg/kg/injection, schedule: Q01DX Z (ip), vehicle: saline
  T/C: 125 % of control
dose: 13.3 mg/kg/injection, schedule: Q01DX009 (ip), vehicle: saline
  T/C: 125 % of control
dose: 13.5 mg/kg/injection, schedule: Q01DX009 (ip), vehicle: saline
  T/C: 131 % of control
dose: 14.0 mg/kg/injection, schedule: Q01DX015 (ip), vehicle: saline
  T/C: 127 % of control
dose: 20.0 mg/kg/injection, schedule: Q01DX009 (ip), vehicle: saline
  T/C: 132 % of control
dose: 20.0 mg/kg/injection, schedule: Q01DX Z (ip), vehicle: saline
  T/C: 138 % of control
dose: 21.0 mg/kg/injection, schedule: Q01DX015 (ip), vehicle: saline
  T/C: 128 % of control
dose: 22.5 mg/kg/injection, schedule: Q01DX Z (ip), vehicle: saline
  T/C: 147 % of control
dose: 30.0 mg/kg/injection, schedule: Q01DX009 (ip), vehicle: saline
  T/C: 138 % of control
dose: 31.0 mg/kg/injection, schedule: Q01DX Z (ip), vehicle: saline
  T/C: 144 % of control
dose: 31.5 mg/kg/injection, schedule: Q01DX015 (ip), vehicle: saline
  T/C: 134 and 139 % of control
dose: 45.0 mg/kg/injection, schedule: Q01DX009 (ip), vehicle: saline
  T/C: 127 % of control
dose: 45.0 mg/kg/injection, schedule: Q01DX Z (ip), vehicle: saline
  T/C: 148 % of control
dose: 89.0 mg/kg/injection, schedule: Q04DX003 (ip), vehicle: saline
  T/C: 126 % of control
dose: 125.0 mg/kg/injection, schedule: Q01DX Z (ip), vehicle: saline
  survivor count: 6 of 6
dose: 133.4 mg/kg/injection, schedule: Q01DX001 (ip), vehicle: saline
  T/C: 132 % of control
dose: 150.0 mg/kg/injection, schedule: Q01DX015 (ip), vehicle: saline
  survivor count: 6 of 6
[4]
  T/C: 132 and 144 % of control
dose: 250.0 mg/kg/injection, schedule: Q01DX Z (ip), vehicle: saline
  survivor count: 5 of 6
dose: 300.0 mg/kg/injection, schedule: Q01DX001 (ip), vehicle: saline, evaluated on day 30
  T/C: 132 and 134 % of control
dose: 300.0 mg/kg/injection, schedule: Q01DX001 (ip), vehicle: saline, run until all animals had died
  T/C: 141 % of control
[5]
  survivor count: 2 of 4
dose: 600.0 mg/kg/injection, schedule: Q01DX001 (ip), vehicle: saline
  survivor count: 1 of 6

## CCOC(=O)C(C)(O)C(C)(Cl)c1ccccc1 (stereo not drawn)
dose: 100.0 mg/kg/injection, schedule: Q04DX002 (ip), vehicle: saline
  T/C: 125 and 134 % of control

## O=C(Nn1cn[nH]c1=S)Oc1ccccc1
[3]
  survivor count: 2 of 6

## COc1ccc(C[C@H]2NC[C@H](O)[C@H]2OC(C)=O)cc1
dose: 400.0 mg/kg/injection, schedule: Q01DX Z (ip), vehicle: saline
  survivor count: 2 of 6

## CCCC[N+](CC)(CC)CCOC(=O)C1C2CC3OC(=O)C1C3C2 (stereo not drawn)
[6]
  survivor count: 0 of 3
[2]
  survivor count: 0 of 3

## O=C(NCCCN1CC1)C(=O)Nc1ccccn1
dose: 400.0 mg/kg/injection, schedule: Q04DX003 (ip), vehicle: Klucel (hydroxypropylcellulose) (HPC)
  survivor count: 0 of 6

## O=C(O)C(O)C(=O)O.[NH2-].[NH2-].[Pt+2]
dose: 1.0 mg/kg/injection, schedule: Q01DX009 (ip), vehicle: other
  survivor count: 0 of 6
dose: 16.0 mg/kg/injection, schedule: Q01DX009 (ip), vehicle: other
  T/C: 143 % of control
dose: 20.0 mg/kg/injection, schedule: Q01DX001 (ip), vehicle: other
  T/C: 144 % of control
dose: 40.0 mg/kg/injection, schedule: Q01DX001 (ip), vehicle: other
  T/C: 149 % of control
dose: 50.0 mg/kg/injection, schedule: Q04DX003 (ip), vehicle: saline
  T/C: 138 % of control
dose: 60.0 mg/kg/injection, schedule: Q01DX001 (ip), vehicle: other
  T/C: 135 % of control
dose: 64.0 mg/kg/injection, schedule: Q01DX001 (ip), vehicle: other
  T/C: 143 % of control
dose: 80.0 mg/kg/injection, schedule: Q01DX001 (ip), vehicle: other
  T/C: 127 % of control
[1]
  T/C: 136 % of control
[6]
  survivor count: 10 of 10
[2]
  survivor count: 8 of 10
